This passage reports cell number change and AC50 results from PubChem BioAssay AID2685 (National Center for Advancing Translational Sciences (NCATS), 2010).

The structures appear in SMILES notation. This is one part of the list. Further columns of the screen follow, without active or inactive calls. Most of these compounds were active or inconclusive in the main read-out, so they are no random draw. Potencies come from curve fits of mixed quality, noted in brackets.

This assay is described as follows: qHTS Assay for Lipid Storage Modulators in Drosophila S3 Cells.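 As to cell number change: cells counted by Cell Tracker Red CMTPX staining in the red channel.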 As to conditions: BODIPY lipid droplet fluorescence, 18-24 h; for cell number change: measured here: cell count max response, cells fed with added oleic acid. The gist of the method:
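Laser-scanning cytometry quantifies lipid droplet accumulation (500–530 nm total intensity; droplet/cell object ratio) in oleic acid-fed (400 uM added) Drosophila S3 cells treated with a concentration series. 20 uM Triacsin C defined 100% inhibition.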

The mark [1] stands for this setting: measured here: lipid fluorescence (Fed channel) AC50, cells fed with added oleic acid.
The mark [2] stands for this setting: measured here: cell number channel AC50, cells fed with added oleic acid.

As for `O=C(Cc1ccccc1)Nc1ccc(NC(=O)c2ccccc2)c(Cl)c1`, the cell number change was -14.4%.

As to `Cc1cc(/C=C2\SC(=S)NC2=O)c(C)n1C`, the cell number change was -3.07%. For the same molecule, under setting [1], the AC50 was 25.9 µM [rising, partial curve, poor fit].

On to `Cc1cccc(C(=O)Oc2cccc3c(O)cccc23)c1`, for which the cell number change is -48.1%. Moreover, the AC50 under setting [2] is 18.4 µM [falling, single point]. For the same molecule, the AC50 under setting [1] was 4.11 µM [rising, partial curve, poor fit].

With `Cn1c(=O)c2c(nc(Br)n2CCc2ccccc2)n(C)c1=O`, the cell number change is -19.4%.

Turning to `CCCCCCN(C(=O)CCCCCN1C(=O)NC(c2ccc(-c3ccccc3)cc2)C(C(=O)OCc2ccccc2)=C1C)C(C(=O)NCCCC)C1CCCCC1` (stereo unspecified), the cell number change was -1.91%. Moreover, the AC50 under setting [1] is 3.66 µM [falling, single point].

Take `CC(C(=O)NC1CCS(=O)(=O)C1)N1C(=O)/C(=C/c2ccc(Cl)cc2)SC1=S` (stereo unspecified): under setting [1], the AC50 is 18.4 µM [falling, partial curve].

Consider `N#Cc1c(F)cccc1NCc1cccs1`, for which the cell number change was found to be 27.8%. Moreover, the AC50 under setting [2] is 3.26 µM [rising, full curve, poor fit].

`CN(Cc1ccccc1)S(=O)(=O)c1ccc(Cl)nc1`: the cell number change came out at 0.983%.

For the molecule `CC1CCN(c2cc(N3CCOCC3)c(F)cc2[N+](=O)[O-])CC1`, the cell number change was -11.8%. Moreover, under setting [1], the half-maximal activity concentration (AC50) was 9.2 µM [falling, partial curve, poor fit].

Regarding `CCCCCCC(C)n1[nH]c(=O)cc1N` (stereo unspecified), the cell number change is -14.1%. Also, the AC50 under setting [2] was 1.3 µM [falling, full curve, poor fit]. In addition, under setting [1], the AC50 is 0.058 µM [falling, full curve, poor fit].

Turning to `Cc1cc(S(=O)(=O)N2CCOCC2)ccc1OCC(=O)N1CCOCC1`, the cell number change was determined as 25.6%. Under setting [2], the AC50 is 0.184 µM [rising, full curve, poor fit]. For the same molecule, the AC50 under setting [1] was 29.1 µM [falling, single point].

With `COc1ccc(CCn2cnc(=O)c(C#N)c2C)cc1OC`, the cell number change turned out to be 41.8%. The AC50 under setting [2] is 23.1 µM [rising, single point].

In the case of `CCOC(=O)CN(C(=O)CSc1nnc2c(n1)[nH]c1c(C)cc(C)cc12)c1ccccc1`, the cell number change was -8.65%. Moreover, under setting [2], the AC50 was 0.13 µM [falling, full curve, poor fit]. Moreover, the half-maximal activity concentration (AC50) under setting [1] is 2.06 µM [falling, partial curve].

With `Cc1ccc(C)c(S(=O)(=O)N2CCN(C(=O)c3cncc(Br)c3)CC2)c1`, the cell number change is 16.2%. In addition, under setting [1], the AC50 was 29.1 µM [rising, single point].

Consider `C/C(=C\c1ccccc1)C1Nc2cccc3cccc(c23)N1`, for which the cell number change is -5.78%. Under setting [1], the AC50 was 16.4 µM [rising, single point].

On to `Cc1cc(C(=O)NCc2cc(C(=O)O)co2)co1`, for which the cell number change is -17.4%.

Turning to `C[C@@H](NC(=O)Cn1ccc(NC(=O)OCc2ccccc2)nc1=O)c1cccc2ccccc12`, the cell number change was 6.81%. Also, the AC50 under setting [1] is 0.58 µM [falling, single point].

Regarding `OC(CNCc1cccs1)c1ccccc1` (stereo unspecified), the cell number change was -4.27%. For the same molecule, the AC50 under setting [2] is 0.146 µM [falling, full curve, poor fit]. For the same molecule, the AC50 under setting [1] is 0.651 µM [falling, full curve, poor fit].

Regarding `O=C(Cc1ccccc1)NNS(=O)(=O)c1ccc([N+](=O)[O-])cc1`, the AC50 under setting [1] is 13 µM [falling, single point].

On to `Cc1cccc2cc(CN(CC3CCCO3)C(=O)c3cnccn3)c(=O)[nH]c12` (stereo unspecified), for which the AC50 by setting is: under setting [2], 1.64 µM [rising, partial curve]; under setting [1], 0.517 µM [rising, full curve].

Take `O=C(c1ccoc1)N1CCC2(CC1)Oc1ccc(F)cc1C(=O)C21CC(c2ccccc2)=NO1` (stereo unspecified): the cell number change was found to be 13.2%. Moreover, under setting [1], the AC50 is 3.66 µM [rising, full curve].

Take `CCOC(=O)C1CCN(C(=O)c2ccc(Br)o2)CC1`: the AC50 is, setting by setting: under setting [2], 0.58 µM [falling, single point]; under setting [1], 0.58 µM [falling, single point].

Turning to `CC1Cc2ccccc2N1C(=O)CSc1nnc(-c2ccc(S(=O)(=O)N3CCCCC3)cc2)o1` (stereo unspecified), the cell number change is -23.8%. The AC50 under setting [2] was 6.51 µM [falling, single point]. For the same molecule, the AC50 under setting [1] is 0.58 µM [falling, single point].

As for `COc1cccc(-n2nnnc2SCC(=O)NCCc2ccc(OC)c(OC)c2)c1`, the cell number change was -50.6%. Besides, the AC50 under setting [2] was 14.6 µM [falling, partial curve, poor fit]. Further, under setting [1], the AC50 is 3.66 µM [falling, partial curve].

As for `CC(C)(C)c1ccc(NS(=O)(=O)c2ccc(N)cc2)cc1`, the cell number change was -35.6%. The AC50 under setting [2] is 23.1 µM [falling, single point]. The AC50 under setting [1] is 20.6 µM [falling, partial curve, poor fit].

Turning to `CCSc1nc(-c2ccccc2)c(-c2ccccc2)n1CC(O)CO` (stereo unspecified), the cell number change was -102%. For the same molecule, under setting [2], the AC50 was 23.1 µM [falling, partial curve]. Moreover, the AC50 under setting [1] was 23.1 µM [falling, partial curve].

Regarding `Cc1ccc(NC(=O)C2C3CCC(O3)C2C(=O)O)cc1Cl` (stereo unspecified), the cell number change is -1.59%. Further, the AC50 under setting [1] is 29.1 µM [rising, single point].

As to `CCNc1ccccc1C(=O)O`, the cell number change was -12.4%. Further, the AC50 under setting [1] is 3.26 µM [falling, full curve, poor fit].

`COc1ccc(Nc2cc(C)nc3ncnn23)cc1Cl`: the cell number change is -48.4%. For the same molecule, the AC50 under setting [2] is 16.4 µM [falling, partial curve, poor fit].

Regarding `N#Cc1cc(C(=O)Cc2ccccc2)c[nH]1`, the cell number change is -22.4%. Further, the AC50 under setting [1] was 0.731 µM [rising, single point].

Turning to `Cc1ccc(OCC(=O)NC(=S)Nc2ccc(S(=O)(=O)Nc3cc(C)on3)cc2)c(Br)c1`, the cell number change is -14%. The AC50 under setting [1] was 32.6 µM [falling, single point].

With `Clc1c(-c2ccccc2)nc2ccccn12`, the cell number change was 28.1%. In addition, the AC50 under setting [2] was 0.13 µM [rising, full curve, poor fit]. Under setting [1], the AC50 is 29.1 µM [falling, single point].

Turning to `CN(C)CCCN1C(=O)C(=O)/C(=C(/O)c2ccccc2)C1c1ccccn1` (stereo unspecified), the cell number change is -3.77%. Further, the AC50 under setting [1] is 0.259 µM [falling, full curve].

As for `C=CCc1cccc2cc(C(=O)NC3CCCC3)c(=O)oc12`, the cell number change is 66.9%. Moreover, the AC50 under setting [2] is 8.2 µM [rising, partial curve]. Further, the AC50 under setting [1] was 16.4 µM [rising, partial curve].

With `O=C(NCc1ccccc1)c1ccc(-c2ccc(F)cc2)o1`, the cell number change turned out to be 21.5%. Moreover, under setting [2], the AC50 is 0.92 µM [rising, full curve, poor fit]. Further, under setting [1], the AC50 was 10.3 µM [rising, partial curve].
